The values that follow come from article PMC11302875.

By UniProt entry, the sequences of proteins in these tests, tags left out.
UniProt Q99814: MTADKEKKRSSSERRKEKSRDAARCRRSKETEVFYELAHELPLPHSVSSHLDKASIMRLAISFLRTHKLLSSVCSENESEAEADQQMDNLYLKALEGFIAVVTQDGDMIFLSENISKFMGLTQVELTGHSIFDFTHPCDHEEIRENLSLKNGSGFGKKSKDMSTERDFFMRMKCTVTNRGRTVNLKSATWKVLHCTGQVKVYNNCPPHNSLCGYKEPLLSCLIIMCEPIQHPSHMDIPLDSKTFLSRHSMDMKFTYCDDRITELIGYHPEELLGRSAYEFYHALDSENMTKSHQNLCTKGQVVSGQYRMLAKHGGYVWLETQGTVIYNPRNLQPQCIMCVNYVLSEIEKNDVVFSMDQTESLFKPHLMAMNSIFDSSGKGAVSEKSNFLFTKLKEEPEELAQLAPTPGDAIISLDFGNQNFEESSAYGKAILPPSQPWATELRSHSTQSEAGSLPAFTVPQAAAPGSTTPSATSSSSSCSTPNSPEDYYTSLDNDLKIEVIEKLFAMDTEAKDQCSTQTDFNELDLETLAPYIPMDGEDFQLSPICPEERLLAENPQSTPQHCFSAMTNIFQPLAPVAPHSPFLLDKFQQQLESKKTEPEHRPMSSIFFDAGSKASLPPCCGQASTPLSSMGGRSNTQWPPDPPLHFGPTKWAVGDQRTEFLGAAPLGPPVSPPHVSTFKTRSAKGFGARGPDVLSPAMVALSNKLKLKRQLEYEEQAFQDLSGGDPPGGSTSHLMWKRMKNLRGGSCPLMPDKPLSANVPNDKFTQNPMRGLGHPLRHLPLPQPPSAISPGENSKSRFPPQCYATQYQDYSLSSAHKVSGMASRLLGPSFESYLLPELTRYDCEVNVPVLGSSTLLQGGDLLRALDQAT

The target in experiment [1] is T1, NRF2 (human (endogenous in HUVECs)) (UniProt Q16236).
T1 sequence: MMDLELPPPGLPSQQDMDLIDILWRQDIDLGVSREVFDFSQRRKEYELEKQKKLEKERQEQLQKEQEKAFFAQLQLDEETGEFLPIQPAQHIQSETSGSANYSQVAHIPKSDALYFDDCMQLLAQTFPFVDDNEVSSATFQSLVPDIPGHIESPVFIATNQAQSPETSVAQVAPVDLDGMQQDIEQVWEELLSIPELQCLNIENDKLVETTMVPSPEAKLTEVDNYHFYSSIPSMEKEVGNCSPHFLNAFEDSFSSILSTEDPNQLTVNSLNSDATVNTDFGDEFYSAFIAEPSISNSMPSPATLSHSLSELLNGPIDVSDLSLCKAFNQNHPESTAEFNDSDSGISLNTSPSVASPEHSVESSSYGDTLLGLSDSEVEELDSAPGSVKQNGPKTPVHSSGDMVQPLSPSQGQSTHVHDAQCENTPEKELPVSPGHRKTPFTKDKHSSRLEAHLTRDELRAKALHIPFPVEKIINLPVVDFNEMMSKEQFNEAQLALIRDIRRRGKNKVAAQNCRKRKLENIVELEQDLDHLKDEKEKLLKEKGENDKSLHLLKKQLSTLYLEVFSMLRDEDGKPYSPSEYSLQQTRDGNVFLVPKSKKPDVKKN
The experiment can be described thus: co-IP; nuclear proteins of HUVECs expressing HA-HIF-2α-WT or mutant, medium with 5 mM or 25 mM glucose.

Another experiment has as its target T2, Myc-NRF2 (human) (UniProt Q16236).
T2 sequence: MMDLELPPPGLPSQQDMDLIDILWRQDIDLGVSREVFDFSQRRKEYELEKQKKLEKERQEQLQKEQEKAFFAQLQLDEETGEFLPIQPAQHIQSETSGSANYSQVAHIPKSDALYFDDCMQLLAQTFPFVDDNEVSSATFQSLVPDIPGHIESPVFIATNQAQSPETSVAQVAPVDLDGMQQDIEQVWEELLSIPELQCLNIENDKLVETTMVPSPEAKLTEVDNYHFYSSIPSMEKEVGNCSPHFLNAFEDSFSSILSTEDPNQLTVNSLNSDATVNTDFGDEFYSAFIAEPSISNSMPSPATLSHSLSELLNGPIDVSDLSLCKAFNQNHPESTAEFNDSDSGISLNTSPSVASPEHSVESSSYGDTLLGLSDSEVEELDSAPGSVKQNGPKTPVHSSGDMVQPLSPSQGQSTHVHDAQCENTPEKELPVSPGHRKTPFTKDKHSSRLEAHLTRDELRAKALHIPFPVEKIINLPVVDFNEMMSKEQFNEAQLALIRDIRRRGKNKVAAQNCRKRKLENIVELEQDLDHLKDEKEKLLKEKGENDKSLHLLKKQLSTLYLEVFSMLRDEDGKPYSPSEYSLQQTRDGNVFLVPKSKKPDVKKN
The experiment can be described thus: co-IP; HUVECs at 5 mM and 25 mM glucose; NRF2 immunoprecipitated with an anti-Myc antibody, HIF-2α detected by Western blot.

The target in experiment [2] is T1, NRF2 (human (endogenous in HUVECs)). The experiment can be described thus: co-IP; HUVEC lysate, 500 μg total protein with primary antibody and protein A/G beads overnight at 4°C, Western blot; cells at 5-25 mM glucose (Fig. 4I) or at 25 mM glucose with Oltipraz (Fig. 8B). Background: In western blotting, separated proteins are transferred to a membrane and probed.

The target in a further experiment is HA-HIF-2α (human) (UniProt Q99814). The experiment can be described thus: co-IP; FLAG-tagged NRF2 truncations and HA-tagged HIF-2α expressed in HEK293T cells; immunoprecipitation with an anti-HA antibody, Western blot.
The target in experiment [3] is T1, NRF2 (human (endogenous in HUVECs)). The experiment can be described thus: co-IP; HUVEC lysate, 500 μg total protein with primary antibody and protein A/G beads overnight at 4°C, Western blot; cells at 5-25 mM glucose (Fig. 4I) or at 25 mM glucose with Oltipraz (Fig. 8B). The source holds these as a separate data set.

No constants are given. Whether binding was seen depends on the method and setting. Binding seen in cells or lysates may run through a third protein. Some entries that bind do so weakly or less than the wild type. For some assays here: Sequences can lack the tags named with a protein.

With “HA-HIF-2α-WT (from UniProt Q99814 1-870)”, in experiment [1], the binding entry was “binds”.

As for HIF-2α (from UniProt Q99814 1-870), the binding entry (with Myc-NRF2 (human); in experiment [2]) was “binds” each time.

B1: FLAG-tagged NRF2 (1-605aa) (protein, UniProt Q16236 1-605)
chain: MMDLELPPPGLPSQQDMDLIDILWRQDIDLGVSREVFDFSQRRKEYELEKQKKLEKERQEQLQKEQEKAFFAQLQLDEETGEFLPIQPAQHIQSETSGSANYSQVAHIPKSDALYFDDCMQLLAQTFPFVDDNEVSSATFQSLVPDIPGHIESPVFIATNQAQSPETSVAQVAPVDLDGMQQDIEQVWEELLSIPELQCLNIENDKLVETTMVPSPEAKLTEVDNYHFYSSIPSMEKEVGNCSPHFLNAFEDSFSSILSTEDPNQLTVNSLNSDATVNTDFGDEFYSAFIAEPSISNSMPSPATLSHSLSELLNGPIDVSDLSLCKAFNQNHPESTAEFNDSDSGISLNTSPSVASPEHSVESSSYGDTLLGLSDSEVEELDSAPGSVKQNGPKTPVHSSGDMVQPLSPSQGQSTHVHDAQCENTPEKELPVSPGHRKTPFTKDKHSSRLEAHLTRDELRAKALHIPFPVEKIINLPVVDFNEMMSKEQFNEAQLALIRDIRRRGKNKVAAQNCRKRKLENIVELEQDLDHLKDEKEKLLKEKGENDKSLHLLKKQLSTLYLEVFSMLRDEDGKPYSPSEYSLQQTRDGNVFLVPKSKKPDVKKN
B1: the binding entry in the experiment with HA-HIF-2α (human) is “binds”.

B2: Sirt2 (protein, UniProt Q8IXJ6 1-389)
chain: MAEPDPSHPLETQAGKVQEAQDSDSDSEGGAAGGEADMDFLRNLFSQTLSLGSQKERLLDELTLEGVARYMQSERCRRVICLVGAGISTSAGIPDFRSPSTGLYDNLEKYHLPYPEAIFEISYFKKHPEPFFALAKELYPGQFKPTICHYFMRLLKDKGLLLRCYTQNIDTLERIAGLEQEDLVEAHGTFYTSHCVSASCRHEYPLSWMKEKIFSEVTPKCEDCQSLVKPDIVFFGESLPARFFSCMQSDFLKVDLLLVMGTSLQVQPFASLISKAPLSTPRLLINKEKAGQSDPFLGMIMGLGGGMDFDSKKAYRDVAWLGECDQGCLALAELLGWKKELEDLVRREHASIDAQSGAGVPNPSTSASPKKSPPPAKDEARTTEREKPQ
With B2, the binding result in experiment [3] is on record as “binds”.
